From paper PMC5730604 (2017)
Some peptides are written in HELM: one residue between dots, names in brackets for other building blocks, links after the first $.

Tests used:
[1] = general procedure: Fmoc solid-phase peptide synthesis; Wang resin; HBTU (DIC/DMAP for first amino acid; HATU for PEG27 linker); conditions: whole synthesis, based on the synthesis scale of 0.2 mmol, scale 0.2 mmol
[2] = general procedure: Fmoc solid-phase peptide synthesis; Wang resin (100–200 mesh, 0.9 mmol/g); HBTU (DIC/DMAP for first amino acid; HATU for PEG27 linker); conditions: whole synthesis

PEPTIDE1{[For].M.I.F.L.G.G.K.K}|PEPTIDE2{[dC].[dD].G.[Tyr3NO2].G.[Hyp].N.[dC].[PEG27]}|PEPTIDE3{[dC].[dD].G.[Tyr3NO2].G.[Hyp].N.[dC].[PEG27]}$PEPTIDE1,PEPTIDE2,8:R3-9:R2|PEPTIDE1,PEPTIDE3,9:R3-9:R2|PEPTIDE2,PEPTIDE2,1:R3-8:R3|PEPTIDE3,PEPTIDE3,1:R3-8:R3$$$V2.0
isolated yield [1]: 20%
final purity (method not given) ([2]; RP-HPLC, ESI-MS, scale of the general procedure 0.2 mmol): more than 98%
isolated mass ([2]; scale 0.2 mmol): 207 mg
